PubChem BioAssay AID504786 | Drosophila RNAi Screening Center, 2011
In all, the deposit lists about 21,000 reagents; below is an unselected part of those that have a named target and a result. 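Primary screen; positive scores mean lost reporter signal, so the sign may be inverted from the usual convention.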 Reagents against one gene are numbered here. Names joined by + are all predicted targets of the reagent. Not all columns of the deposit are shown.

Purpose: 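Knock-downs reducing HIF reporter induction by the iron chelator DFO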 (primary screen)
Cell system: Drosophila S2 cells with a stable HIF luciferase reporter
Knock-down reagent: long dsRNA against Drosophila genes, about 0.2 µg dsRNA per well of a 384-well plate
Duration: three days of knock-down, then 20 h of DFO before reading
Challenge: desferrioxamine (DFO) at 100 µM, an iron chelator that mimics hypoxia, for 20 h
Measurement: 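Firefly luciferase driven by the mouse ldh-a hypoxia-response element, measured after 20 h of 100 µM DFO; z-scores per plate, higher means more signal lost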
Direction: z-score: higher = stronger loss of HIF reporter signal

| Gene | dsRNA no. | z-score, replicate 1 | z-score, replicate 2 |
| --- | --- | --- | --- |
| Ir60d (Ionotropic receptor 60d) | 1 | -0.2 | -0.4 |
| CG13010 | 1 | 0 | -0.5 |
| Torsin | 1 | -0.2 | 2.1 |
| rux (roughex) | 1 | -0.4 | -0.4 |
| mldr (mulder) | 1 | -0.2 | -0.1 |
| CG1958 | 1 | -0.3 | -0.7 |
| Arf4 (ADP ribosylation factor 4) | 1 | -0.5 | -0.4 |
| l(3)05822 (lethal (3) 05822) | 1 | -0.3 | -0.4 |
| CG8401 | 1 | -0.3 | -0.2 |
| CG3008 | 1 | -0.2 | -0.1 |
| Bin1 (Bicoid interacting protein 1) | 1 | -0.3 | -0.2 |
| Gp150 | 1 | -0.3 | 0.2 |
| CG14275 | 1 | -0.3 | -0.8 |
| CG33340 | 1 | -0.2 | -0.1 |
| AstC-R2 (Allatostatin C receptor 2) | 1 | -0.3 | 0.2 |
| DnaJ-H (DnaJ homolog) | 1 | -0.4 | 0.5 |
| CG14982 | 1 | 3.2 | 0.9 |
| tna (tonalli) | 1 | -0.3 | -0.8 |
| tna (tonalli) | 2 | 0.5 | 0.2 |
| obst-J (obstructor-J) | 1 | -0.3 | -0.5 |
| CG42324 | 1 | -0.4 | -0.5 |
| CG42324 | 2 | -0.3 | -0.5 |
| CG5068 | 1 | -0.4 | -0.6 |
| Cpr30B (Cuticular protein 30B) | 1 | -0.4 | -0.2 |
| CG13931 | 1 | -0.3 | -0.3 |
| AstC-R1 (Allatostatin C receptor 1) | 1 | -0.1 | -0.8 |
| CG15754 | 1 | 0.7 | 0.2 |
| LPCAT (Lysophosphatidylcholine acyltransferase) | 1 | -0.1 | -0.2 |
| LPCAT (Lysophosphatidylcholine acyltransferase) | 2 | -0.3 | -0.3 |
| CG9951 | 1 | -0.3 | -0.3 |
| CG13300 | 1 | -0.4 | -0.9 |
| mRpL47 (mitochondrial ribosomal protein L47) | 1 | 0.9 | 0.8 |
| CG10631 | 1 | -0.4 | -0.2 |
| CG30110 | 1 | 0.1 | -0.2 |
| CG1943 | 1 | -0.1 | -0.6 |
| Nmda1 (N-methyl-D-aspartate receptor-associated protein) | 1 | -0.2 | -0.5 |
| CG14294 | 1 | -0.5 | -0.1 |
| CG11263 | 1 | -0.2 | -0.2 |
| RpL3 + CG6693 | 1 | -0.3 | -0.1 |
| Polr2K (RNA polymerase II, I and III subunit K) | 1 | 0.1 | 0 |
| mRpL14 (mitochondrial ribosomal protein L14) | 1 | 0.8 | 0.5 |
| CG17105 | 1 | 0.2 | 1 |
| CG11777 | 1 | -0.3 | 0 |
| Gmer (GDP-4-keto-6-deoxy-D-mannose 3,5-epimerase/4-reductase) | 1 | -0.3 | -0.4 |
| Orai | 1 | -0.5 | -0.1 |
| lig (lingerer) | 1 | 1.6 | 0.7 |
| lig (lingerer) | 2 | 0.1 | -0.1 |
| CG8788 | 1 | -0.3 | -0.4 |
| Ipo9 (Importin 9) | 1 | -0.3 | -0.8 |
| SAK (Sak kinase) | 1 | -0.1 | 0.2 |
| CG7896 | 1 | -0.3 | -0.4 |
| CG7295 | 1 | -0.2 | -0.4 |
| NimC4 (Nimrod C4) | 1 | -0.4 | -0.4 |
| CG2065 | 1 | -0.2 | -0.1 |
| CG34167 | 1 | -0.2 | -0.1 |
| CG5171 | 1 | -0.2 | -0.3 |

A portion from the list above, for reference:
| Gene | dsRNA no. | z-score, replicate 1 | z-score, replicate 2 |
| --- | --- | --- | --- |
| CG42324 | 1 | -0.4 | -0.5 |
| CG42324 | 2 | -0.3 | -0.5 |
| CG5068 | 1 | -0.4 | -0.6 |
| Cpr30B (Cuticular protein 30B) | 1 | -0.4 | -0.2 |
